Results published in ChEMBL document CHEMBL4316593 (Eur J Med Chem, 2019).
This continues a long series; more values of the same kind are listed elsewhere.

Legend:
Format in all cases: cell-based
Conditions in all cases: U-87MG ATCC
[1] = Inhibition of RTK/PI3K/AKT/mTOR signaling in human U87 cells assessed as down regulation of SERINC1 gene expression at cytotoxic IC50 measured after 48 hrs relative to control
[2] = Inhibition of RTK/PI3K/AKT/mTOR signaling in human U87 cells assessed as up regulation of transmembrane protein 59 like gene expression at cytotoxic IC50 measured after 48 hrs relative to control
[3] = Inhibition of RTK/PI3K/AKT/mTOR signaling in human U87 cells assessed as up regulation of tight junction protein 3 gene expression at cytotoxic IC50 measured after 48 hrs relative to control
[4] = Inhibition of RTK/PI3K/AKT/mTOR signaling in human U87 cells assessed as down regulation of TAF15 gene expression at cytotoxic IC50 measured after 48 hrs relative to control
[5] = Inhibition of RTK/PI3K/AKT/mTOR signaling in human U87 cells assessed as up regulation of DPH2 homolog gene expression at cytotoxic IC50 measured after 48 hrs relative to control
[6] = Inhibition of RTK/PI3K/AKT/mTOR signaling in human U87 cells assessed as down regulation of EPC2 gene expression at cytotoxic IC50 measured after 48 hrs relative to control
[7] = Inhibition of RTK/PI3K/AKT/mTOR signaling in human U87 cells assessed as up regulation of acetyl-CoA acetyltransferase 1 gene expression at cytotoxic IC50 measured after 48 hrs relative to control
[8] = Inhibition of RTK/PI3K/AKT/mTOR signaling in human U87 cells assessed as up regulation of male specific lethal 1 homolog gene expression at cytotoxic IC50 measured after 48 hrs relative to control
[9] = Inhibition of RTK/PI3K/AKT/mTOR signaling in human U87 cells assessed as down regulation of NKX3-1 gene expression at cytotoxic IC50 measured after 48 hrs relative to control
[10] = Inhibition of RTK/PI3K/AKT/mTOR signaling in human U87 cells assessed as down regulation of NEDD4L gene expression at cytotoxic IC50 measured after 48 hrs relative to control
[11] = Inhibition of RTK/PI3K/AKT/mTOR signaling in human U87 cells assessed as down regulation of AP2M1 gene expression at cytotoxic IC50 measured after 48 hrs relative to control
[12] = Inhibition of RTK/PI3K/AKT/mTOR signaling in human U87 cells assessed as up regulation of RAP2B gene expression at cytotoxic IC50 measured after 48 hrs relative to control
[13] = Inhibition of RTK/PI3K/AKT/mTOR signaling in human U87 cells assessed as down regulation of ABI1 gene expression at cytotoxic IC50 measured after 48 hrs relative to control
[14] = Inhibition of RTK/PI3K/AKT/mTOR signaling in human U87 cells assessed as down regulation of RAB30 gene expression at cytotoxic IC50 measured after 48 hrs relative to control
[15] = Inhibition of RTK/PI3K/AKT/mTOR signaling in human U87 cells assessed as up regulation of family with sequence similarity 3 member C gene expression at cytotoxic IC50 measured after 48 hrs relative to control
[16] = Inhibition of RTK/PI3K/AKT/mTOR signaling in human U87 cells assessed as up regulation of phosphoglycerate mutase 1 gene expression at cytotoxic IC50 measured after 48 hrs relative to control
[17] = Inhibition of RTK/PI3K/AKT/mTOR signaling in human U87 cells assessed as down regulation of PSMD8 gene expression at cytotoxic IC50 measured after 48 hrs relative to control
[18] = Inhibition of RTK/PI3K/AKT/mTOR signaling in human U87 cells assessed as up regulation of GRAM domain containing 1B gene expression at cytotoxic IC50 measured after 48 hrs relative to control
[19] = Inhibition of RTK/PI3K/AKT/mTOR signaling in human U87 cells assessed as down regulation of PSMD6 gene expression at cytotoxic IC50 measured after 48 hrs relative to control
[20] = Inhibition of RTK/PI3K/AKT/mTOR signaling in human U87 cells assessed as down regulation of DNAJB14 gene expression at cytotoxic IC50 measured after 48 hrs relative to control
[21] = Inhibition of RTK/PI3K/AKT/mTOR signaling in human U87 cells assessed as up regulation of exportin for tRNA gene expression at cytotoxic IC50 measured after 48 hrs relative to control
[22] = Inhibition of RTK/PI3K/AKT/mTOR signaling in human U87 cells assessed as up regulation of dual specificity phosphatase 4 gene expression at cytotoxic IC50 measured after 48 hrs relative to control
[23] = Inhibition of RTK/PI3K/AKT/mTOR signaling in human U87 cells assessed as down regulation of MAP3K9 gene expression at cytotoxic IC50 measured after 48 hrs relative to control
[24] = Inhibition of RTK/PI3K/AKT/mTOR signaling in human U87 cells assessed as down regulation of GOSR2 gene expression at cytotoxic IC50 measured after 48 hrs relative to control
[25] = Inhibition of RTK/PI3K/AKT/mTOR signaling in human U87 cells assessed as up regulation of ectonucleoside triphosphate diphosphohydrolase 6 (putative) gene expression at cytotoxic IC50 measured after 48 hrs relative to control
[26] = Inhibition of RTK/PI3K/AKT/mTOR signaling in human U87 cells assessed as up regulation of muscleblind like splicing regulator 2 gene expression at cytotoxic IC50 measured after 48 hrs relative to control
[27] = Inhibition of RTK/PI3K/AKT/mTOR signaling in human U87 cells assessed as down regulation of TTL gene expression at cytotoxic IC50 measured after 48 hrs relative to control
[28] = Inhibition of RTK/PI3K/AKT/mTOR signaling in human U87 cells assessed as up regulation of ANKRD37 gene expression at cytotoxic IC50 measured after 48 hrs relative to control
[29] = Inhibition of RTK/PI3K/AKT/mTOR signaling in human U87 cells assessed as down regulation of ZNF800 gene expression at cytotoxic IC50 measured after 48 hrs relative to control
[30] = Inhibition of RTK/PI3K/AKT/mTOR signaling in human U87 cells assessed as up regulation of TSPAN5 gene expression at cytotoxic IC50 measured after 48 hrs relative to control
[31] = Inhibition of RTK/PI3K/AKT/mTOR signaling in human U87 cells assessed as down regulation of ELOC gene expression at cytotoxic IC50 measured after 48 hrs relative to control
[32] = Inhibition of RTK/PI3K/AKT/mTOR signaling in human U87 cells assessed as up regulation of chromosome 15 open reading frame 52 gene expression at cytotoxic IC50 measured after 48 hrs relative to control

SMILES: CC(=O)C(=NNc1ccccc1C#N)C(C)=O
- log2FC [1]: -0.625
- log2FC [2]: 1.18
- log2FC [3]: 1.12
- log2FC [4]: -0.487
- log2FC [5]: 0.664
- log2FC [6]: -0.787
- log2FC [7]: 0.8
- log2FC [8]: 0.81
- log2FC [9]: -1.4
- log2FC [10]: -0.692
- log2FC [11]: -0.795
- log2FC [12]: 0.641
- log2FC [13]: -0.628
- log2FC [14]: -1.21
- log2FC [15]: 1.08
- log2FC [16]: 1.22
- log2FC [17]: -0.604
- log2FC [18]: 0.817
- log2FC [19]: -1.14
- log2FC [20]: -0.668
- log2FC [21]: 0.998
- log2FC [22]: 0.831
- log2FC [23]: -1.11
- log2FC [24]: -0.832
- log2FC [25]: 1.06
- log2FC [26]: 1.4
- log2FC [27]: -1.18
- log2FC [28]: 1.7
- log2FC [29]: -1.12
- log2FC [30]: 0.584
- log2FC [31]: -0.466
- log2FC [32]: 1.52
